# The supplement of paper PMC10849652
# Protein sequences, listed by entry. Tags and fused reporters are not part of them. Lines headed by an entry give the natural chain unless they say otherwise; changes in a name come on top.
# UniProt Q9H270: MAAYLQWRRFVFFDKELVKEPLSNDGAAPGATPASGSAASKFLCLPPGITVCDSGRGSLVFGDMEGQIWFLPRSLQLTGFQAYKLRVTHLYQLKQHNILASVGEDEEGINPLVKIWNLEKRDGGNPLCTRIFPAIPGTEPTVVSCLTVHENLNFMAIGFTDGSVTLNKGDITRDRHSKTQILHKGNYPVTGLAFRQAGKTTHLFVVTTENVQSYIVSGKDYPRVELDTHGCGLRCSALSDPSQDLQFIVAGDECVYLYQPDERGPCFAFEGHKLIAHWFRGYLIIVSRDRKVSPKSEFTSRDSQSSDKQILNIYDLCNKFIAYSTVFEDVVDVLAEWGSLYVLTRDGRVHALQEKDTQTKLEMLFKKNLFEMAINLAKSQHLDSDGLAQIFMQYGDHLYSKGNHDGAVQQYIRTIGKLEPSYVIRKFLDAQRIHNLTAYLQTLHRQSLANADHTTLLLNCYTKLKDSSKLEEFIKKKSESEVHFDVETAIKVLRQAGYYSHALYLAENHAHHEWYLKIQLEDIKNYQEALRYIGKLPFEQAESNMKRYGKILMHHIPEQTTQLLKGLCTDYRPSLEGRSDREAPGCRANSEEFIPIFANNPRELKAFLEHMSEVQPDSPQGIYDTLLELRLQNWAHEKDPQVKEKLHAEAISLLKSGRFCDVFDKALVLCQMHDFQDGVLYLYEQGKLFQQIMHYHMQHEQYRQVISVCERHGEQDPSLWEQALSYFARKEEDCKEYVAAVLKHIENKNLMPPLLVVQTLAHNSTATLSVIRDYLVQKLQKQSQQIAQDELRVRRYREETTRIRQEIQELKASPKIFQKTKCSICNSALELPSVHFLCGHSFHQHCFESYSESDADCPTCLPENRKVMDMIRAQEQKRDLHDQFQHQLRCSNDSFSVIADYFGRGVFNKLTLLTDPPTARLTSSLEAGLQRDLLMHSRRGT
# UniProt Q8IV63: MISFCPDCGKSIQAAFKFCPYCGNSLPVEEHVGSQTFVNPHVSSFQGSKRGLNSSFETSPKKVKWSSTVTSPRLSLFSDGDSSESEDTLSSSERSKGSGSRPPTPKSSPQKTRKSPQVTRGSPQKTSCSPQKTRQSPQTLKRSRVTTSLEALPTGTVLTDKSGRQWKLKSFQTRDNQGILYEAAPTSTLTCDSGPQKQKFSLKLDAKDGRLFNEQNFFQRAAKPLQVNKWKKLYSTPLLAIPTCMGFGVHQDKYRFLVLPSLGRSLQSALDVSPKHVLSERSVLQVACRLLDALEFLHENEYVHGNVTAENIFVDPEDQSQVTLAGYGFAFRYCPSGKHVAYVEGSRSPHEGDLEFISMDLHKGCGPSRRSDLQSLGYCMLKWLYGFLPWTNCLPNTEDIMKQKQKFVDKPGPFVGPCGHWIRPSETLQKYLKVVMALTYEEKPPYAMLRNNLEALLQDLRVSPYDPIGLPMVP
# UniProt Q8IWA0: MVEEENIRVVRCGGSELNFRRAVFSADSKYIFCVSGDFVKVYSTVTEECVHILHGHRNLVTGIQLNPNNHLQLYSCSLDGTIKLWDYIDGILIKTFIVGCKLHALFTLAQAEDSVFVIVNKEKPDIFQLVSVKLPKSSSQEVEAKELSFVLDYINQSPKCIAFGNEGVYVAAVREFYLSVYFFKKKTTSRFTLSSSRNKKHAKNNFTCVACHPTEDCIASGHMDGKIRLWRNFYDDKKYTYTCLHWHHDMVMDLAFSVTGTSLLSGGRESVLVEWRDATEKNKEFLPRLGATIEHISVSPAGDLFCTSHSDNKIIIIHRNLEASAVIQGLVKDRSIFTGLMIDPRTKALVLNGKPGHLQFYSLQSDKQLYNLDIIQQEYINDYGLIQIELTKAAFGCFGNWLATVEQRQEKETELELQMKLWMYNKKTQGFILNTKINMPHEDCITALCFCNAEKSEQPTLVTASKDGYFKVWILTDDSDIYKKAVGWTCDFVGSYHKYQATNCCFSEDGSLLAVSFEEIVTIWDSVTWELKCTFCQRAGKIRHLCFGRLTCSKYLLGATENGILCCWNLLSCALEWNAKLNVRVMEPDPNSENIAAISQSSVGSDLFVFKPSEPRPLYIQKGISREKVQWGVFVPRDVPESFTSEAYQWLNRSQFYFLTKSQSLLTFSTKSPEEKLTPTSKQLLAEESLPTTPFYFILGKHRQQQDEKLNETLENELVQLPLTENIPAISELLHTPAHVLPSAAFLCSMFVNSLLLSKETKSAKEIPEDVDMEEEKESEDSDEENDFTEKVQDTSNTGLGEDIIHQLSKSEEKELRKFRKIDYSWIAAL
# UniProt O75351, whole entry, looked up: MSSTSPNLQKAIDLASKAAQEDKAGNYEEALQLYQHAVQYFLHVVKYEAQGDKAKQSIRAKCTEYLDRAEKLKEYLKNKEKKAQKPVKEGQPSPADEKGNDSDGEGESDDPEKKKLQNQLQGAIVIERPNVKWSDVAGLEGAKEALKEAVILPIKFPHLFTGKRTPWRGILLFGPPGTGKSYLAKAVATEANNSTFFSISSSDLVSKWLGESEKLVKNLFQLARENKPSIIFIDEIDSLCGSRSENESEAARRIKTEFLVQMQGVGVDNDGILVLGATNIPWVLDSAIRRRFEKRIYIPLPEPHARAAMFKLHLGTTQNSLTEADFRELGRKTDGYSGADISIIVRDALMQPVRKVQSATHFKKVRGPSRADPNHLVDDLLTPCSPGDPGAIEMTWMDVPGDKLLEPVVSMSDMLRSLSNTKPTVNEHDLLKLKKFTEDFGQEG
# UniProt Q8N2E2: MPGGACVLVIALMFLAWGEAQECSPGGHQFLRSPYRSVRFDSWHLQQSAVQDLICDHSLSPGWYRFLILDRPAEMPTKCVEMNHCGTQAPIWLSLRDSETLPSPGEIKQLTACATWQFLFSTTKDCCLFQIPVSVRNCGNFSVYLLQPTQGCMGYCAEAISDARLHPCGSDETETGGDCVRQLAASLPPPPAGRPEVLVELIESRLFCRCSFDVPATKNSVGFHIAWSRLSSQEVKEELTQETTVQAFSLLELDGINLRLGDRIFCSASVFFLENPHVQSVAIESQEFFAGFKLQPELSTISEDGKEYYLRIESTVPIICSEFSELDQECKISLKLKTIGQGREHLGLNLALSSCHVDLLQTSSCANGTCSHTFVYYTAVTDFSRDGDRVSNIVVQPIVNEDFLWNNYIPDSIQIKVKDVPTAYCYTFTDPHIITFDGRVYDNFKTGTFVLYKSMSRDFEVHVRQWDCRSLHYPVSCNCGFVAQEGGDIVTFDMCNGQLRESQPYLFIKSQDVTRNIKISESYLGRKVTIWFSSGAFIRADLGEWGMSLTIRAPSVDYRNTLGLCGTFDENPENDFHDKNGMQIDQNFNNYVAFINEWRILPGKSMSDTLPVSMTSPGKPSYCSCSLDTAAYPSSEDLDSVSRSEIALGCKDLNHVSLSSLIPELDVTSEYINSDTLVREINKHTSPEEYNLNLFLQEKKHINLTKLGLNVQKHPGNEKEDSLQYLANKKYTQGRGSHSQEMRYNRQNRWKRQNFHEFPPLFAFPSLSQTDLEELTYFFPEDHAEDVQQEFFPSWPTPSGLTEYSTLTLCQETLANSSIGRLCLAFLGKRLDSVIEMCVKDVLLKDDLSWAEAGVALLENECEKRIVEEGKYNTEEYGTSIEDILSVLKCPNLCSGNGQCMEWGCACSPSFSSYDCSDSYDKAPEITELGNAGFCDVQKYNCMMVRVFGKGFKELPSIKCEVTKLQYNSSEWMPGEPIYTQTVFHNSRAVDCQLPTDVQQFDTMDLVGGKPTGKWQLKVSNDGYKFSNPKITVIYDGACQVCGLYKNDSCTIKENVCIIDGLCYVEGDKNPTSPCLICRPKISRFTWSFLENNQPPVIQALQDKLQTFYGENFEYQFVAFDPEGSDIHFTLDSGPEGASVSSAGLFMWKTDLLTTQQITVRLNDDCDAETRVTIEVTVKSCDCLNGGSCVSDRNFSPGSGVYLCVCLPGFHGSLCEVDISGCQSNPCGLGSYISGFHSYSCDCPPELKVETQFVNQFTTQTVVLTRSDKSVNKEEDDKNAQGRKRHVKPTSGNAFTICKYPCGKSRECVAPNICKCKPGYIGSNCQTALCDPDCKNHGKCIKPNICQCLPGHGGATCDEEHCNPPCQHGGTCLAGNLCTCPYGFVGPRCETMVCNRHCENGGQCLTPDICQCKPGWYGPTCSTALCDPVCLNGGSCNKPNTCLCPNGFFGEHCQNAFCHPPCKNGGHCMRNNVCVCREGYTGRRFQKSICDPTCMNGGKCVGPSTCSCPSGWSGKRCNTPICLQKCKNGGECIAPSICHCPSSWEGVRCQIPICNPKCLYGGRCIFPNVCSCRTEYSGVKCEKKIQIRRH
# UniProt Q9NZC7: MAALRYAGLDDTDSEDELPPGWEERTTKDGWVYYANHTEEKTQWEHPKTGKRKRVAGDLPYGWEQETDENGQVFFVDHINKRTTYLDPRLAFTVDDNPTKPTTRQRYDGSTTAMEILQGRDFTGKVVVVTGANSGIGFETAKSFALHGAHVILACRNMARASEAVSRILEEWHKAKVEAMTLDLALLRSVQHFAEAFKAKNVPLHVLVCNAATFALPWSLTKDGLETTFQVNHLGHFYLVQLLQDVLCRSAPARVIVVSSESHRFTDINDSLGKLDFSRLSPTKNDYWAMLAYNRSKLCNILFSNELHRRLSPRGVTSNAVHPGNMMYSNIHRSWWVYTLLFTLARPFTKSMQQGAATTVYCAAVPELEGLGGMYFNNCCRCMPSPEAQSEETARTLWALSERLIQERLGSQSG
# UniProt Q969T9: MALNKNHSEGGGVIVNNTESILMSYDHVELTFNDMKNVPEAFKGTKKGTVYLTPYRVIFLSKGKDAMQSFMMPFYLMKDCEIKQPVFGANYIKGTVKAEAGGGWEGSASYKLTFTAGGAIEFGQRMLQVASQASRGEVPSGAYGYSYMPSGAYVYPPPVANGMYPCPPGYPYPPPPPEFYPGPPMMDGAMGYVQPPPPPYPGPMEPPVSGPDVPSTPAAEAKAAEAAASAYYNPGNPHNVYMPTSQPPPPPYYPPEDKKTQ
# UniProt Q9UN37: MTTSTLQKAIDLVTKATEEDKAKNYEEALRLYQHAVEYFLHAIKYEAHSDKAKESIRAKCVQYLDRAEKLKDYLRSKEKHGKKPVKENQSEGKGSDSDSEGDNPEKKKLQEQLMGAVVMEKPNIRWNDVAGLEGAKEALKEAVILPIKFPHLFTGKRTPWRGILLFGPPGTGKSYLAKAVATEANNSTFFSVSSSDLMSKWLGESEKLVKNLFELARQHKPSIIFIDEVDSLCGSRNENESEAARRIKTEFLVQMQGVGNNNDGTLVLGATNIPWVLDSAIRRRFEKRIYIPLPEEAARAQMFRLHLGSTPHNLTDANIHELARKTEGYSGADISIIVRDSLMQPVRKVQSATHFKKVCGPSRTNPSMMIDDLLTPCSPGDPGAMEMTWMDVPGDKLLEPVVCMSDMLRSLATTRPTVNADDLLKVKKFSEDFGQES
# UniProt Q6PJI9: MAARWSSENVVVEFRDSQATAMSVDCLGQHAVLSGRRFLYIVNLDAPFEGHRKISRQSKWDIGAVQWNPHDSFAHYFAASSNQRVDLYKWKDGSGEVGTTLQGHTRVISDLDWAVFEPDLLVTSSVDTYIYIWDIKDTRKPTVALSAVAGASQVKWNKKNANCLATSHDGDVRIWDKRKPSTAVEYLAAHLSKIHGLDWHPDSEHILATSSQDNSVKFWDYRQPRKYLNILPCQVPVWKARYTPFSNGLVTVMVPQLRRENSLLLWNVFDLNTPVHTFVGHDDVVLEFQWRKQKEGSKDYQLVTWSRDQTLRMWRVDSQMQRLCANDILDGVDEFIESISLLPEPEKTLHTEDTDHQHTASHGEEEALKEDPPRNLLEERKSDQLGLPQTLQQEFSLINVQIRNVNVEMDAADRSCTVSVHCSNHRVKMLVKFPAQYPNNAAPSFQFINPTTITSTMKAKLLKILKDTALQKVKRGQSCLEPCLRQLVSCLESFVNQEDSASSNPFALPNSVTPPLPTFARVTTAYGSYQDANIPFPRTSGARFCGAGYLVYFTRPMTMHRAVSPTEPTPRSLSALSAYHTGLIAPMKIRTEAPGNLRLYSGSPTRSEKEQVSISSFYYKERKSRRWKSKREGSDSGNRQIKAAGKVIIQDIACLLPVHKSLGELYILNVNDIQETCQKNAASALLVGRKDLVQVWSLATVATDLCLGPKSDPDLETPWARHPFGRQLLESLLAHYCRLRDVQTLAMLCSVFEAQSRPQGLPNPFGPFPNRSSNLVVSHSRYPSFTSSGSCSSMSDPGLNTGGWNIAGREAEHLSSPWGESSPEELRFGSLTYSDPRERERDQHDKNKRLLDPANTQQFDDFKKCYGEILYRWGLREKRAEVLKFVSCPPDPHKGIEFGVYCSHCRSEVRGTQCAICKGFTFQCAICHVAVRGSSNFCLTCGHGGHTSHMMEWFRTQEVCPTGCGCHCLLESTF
# UniProt Q9UEU0: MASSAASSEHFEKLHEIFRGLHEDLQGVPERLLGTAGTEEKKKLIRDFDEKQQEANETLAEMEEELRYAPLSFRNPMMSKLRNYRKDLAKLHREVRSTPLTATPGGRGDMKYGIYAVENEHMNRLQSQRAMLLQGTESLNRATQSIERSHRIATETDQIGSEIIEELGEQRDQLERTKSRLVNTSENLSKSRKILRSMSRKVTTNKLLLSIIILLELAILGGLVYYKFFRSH
# This is one part of the list.
# Compound: CC1=C2C(=CC=C1)N=C(N(C2=O)C3=CC=CC=C3C)CN4C=NC5=C(N=CN=C54)N
# Assay: log2 fold change, soluble protein after heating vs DMSO (PISA); higher = thermal stabilisation; K562 lysate, 10 uM; active = over 0.2 and 3.5 SD of the protein, either way, in both replicates (recomputed)
# Summary of the method: (§1)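 Pellets of K562 cells were dounce-homogenised in PBS pH 7.4 with 1 mM MgCl2, and the crude extract was held at 1 mg/mL protein for a 30 min treatment with 10 μM compound. Aliquots were heated for 3 min over 48°C-58°C and pooled before NP-40 was added to 0.5% at 4°C. The supernatant from 21,000xg for 90 min was quantified by TMTpro 16plex LC-MS/MS with channel sums equalised. Values are reported from duplicates as log-two fold change in thermal stability relative to solvent controls.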
row,Target,log2 fold change
1,VPS29 (UniProt Q9UBQ0),inactive: -0.01
2,WWP2 (UniProt O00308),inactive: 0.042
3,VPS33A (UniProt Q96AX1),inactive: 0.014
4,VPS37A (UniProt Q8NEZ2),inactive: 0
5,WDYHV1 (UniProt Q96HA8),inactive: 0.159
6,VPS11 (UniProt Q9H270),inactive: 0.044
7,VPS51 (UniProt Q9UID3),inactive: 0.023
8,WDR74 (UniProt Q6RFH5),inactive: 0.006
9,VRK3 (UniProt Q8IV63),inactive: 0.031
10,WASF2 (UniProt Q9Y6W5),inactive: -0.012
11,VPS72 (UniProt Q15906),inactive: 0.027
12,WDR75 (UniProt Q8IWA0),inactive: 0.052
13,WDR66 (UniProt Q8TBY9),inactive: -0.109
14,WDR33 (UniProt Q9C0J8),inactive: -0.032
15,VPS4B (UniProt O75351),inactive: 0.017
16,WDR53 (UniProt Q7Z5U6),inactive: -0.31
17,VWDE (UniProt Q8N2E2),inactive: 0.079
18,WWOX (UniProt Q9NZC7),inactive: -0.056
19,"WDR46, A0A0G2JJL1",inactive: -0.176
20,WDR43 (UniProt Q15061),inactive: 0.008
21,WASHC5 (UniProt Q12768),inactive: 0.009
22,WBP2 (UniProt Q969T9),inactive: 0.006
23,"VKORC1L1, A0A3B3ISV4",inactive: -0.029
24,VPS4A (UniProt Q9UN37),inactive: -0.102
25,WDR59 (UniProt Q6PJI9),inactive: 0.032
26,"WDR13, A0A087X091",inactive: -0.055

# Compound: Cc1sc2c(c1C)C(c1ccc(Cl)cc1)=N[C@@H](CC(=O)OC(C)(C)C)c1nnc(C)n1-2
# Assay: as above
# Summary of the method: as §1
row,Target,log2 fold change
1,VPS29 (UniProt Q9UBQ0),inactive: -0.118
2,WWP2 (UniProt O00308),inactive: -0.035
3,VPS33A (UniProt Q96AX1),inactive: -0.013
4,VPS37A (UniProt Q8NEZ2),inactive: 0.017
5,WDYHV1 (UniProt Q96HA8),inactive: 0.036
6,VPS11 (UniProt Q9H270),inactive: 0.048
7,VTI1B (UniProt Q9UEU0),inactive: -0.118
8,WIPI1 (UniProt Q5MNZ9),inactive: 0.035
9,VPS51 (UniProt Q9UID3),inactive: 0.025
10,WDR74 (UniProt Q6RFH5),inactive: 0.034
11,VRK3 (UniProt Q8IV63),inactive: -0.049
12,WASF2 (UniProt Q9Y6W5),inactive: -0.028
13,WAS (UniProt P42768),inactive: -0.095
14,VPS72 (UniProt Q15906),inactive: -0.015
15,WDR75 (UniProt Q8IWA0),inactive: -0.018
16,XK (UniProt P51811),inactive: -0.083
17,WDFY2 (UniProt Q96P53),inactive: 0.055

row,Target,log2 fold change
1,WAC isoform 5 (UniProt Q9BTA9),inactive: -0.232
2,WDR33 (UniProt Q9C0J8),inactive: 0.009
3,VPS4B (UniProt O75351),inactive: 0.035
4,WDR53 (UniProt Q7Z5U6),inactive: -0.077
5,VWDE (UniProt Q8N2E2),inactive: 0.048
6,WWOX (UniProt Q9NZC7),inactive: 0.274
7,"WDR46, A0A0G2JJL1",inactive: 0.037
8,WSB1 (UniProt Q9Y6I7),inactive: 0.036
9,WDR43 (UniProt Q15061),inactive: 0.018
10,WASHC5 (UniProt Q12768),inactive: 0.001
11,WBP2 (UniProt Q969T9),inactive: 0.005
12,"VKORC1L1, A0A3B3ISV4",inactive: -0.018
13,VPS4A (UniProt Q9UN37),inactive: 0.017
14,WDR59 (UniProt Q6PJI9),inactive: 0.023
15,WDR76 (UniProt Q9H967),inactive: -0.167
16,VWA3B isoform 6 (UniProt Q502W6),inactive: -0.151

# Compound: c1ccc([C@@H]2C[C@H]2NC2CCNCC2)cc1
# Assay: as above
# Summary of the method: as §1
row,Target,log2 fold change
1,WWP2 (UniProt O00308),inactive: -0.035
2,VPS33A (UniProt Q96AX1),inactive: -0.01
3,VPS37A (UniProt Q8NEZ2),inactive: 0.089
4,VPS11 (UniProt Q9H270),inactive: 0.029
5,VTI1B (UniProt Q9UEU0),inactive: -0.035
6,WIPI1 (UniProt Q5MNZ9),inactive: -0.031
7,VPS51 (UniProt Q9UID3),inactive: 0.08
8,WDR74 (UniProt Q6RFH5),inactive: 0.035
9,VRK3 (UniProt Q8IV63),inactive: 0.044
10,WASF2 (UniProt Q9Y6W5),inactive: -0.006
11,WAS (UniProt P42768),inactive: 0.053
12,VPS72 (UniProt Q15906),inactive: -0.035
13,"VPS35, A0A1W2PP10",inactive: -0.243
14,WDR75 (UniProt Q8IWA0),inactive: 0.04
15,XK (UniProt P51811),inactive: -0.023
16,WDR33 (UniProt Q9C0J8),inactive: 0.001
17,VPS4B (UniProt O75351),inactive: 0.067

row,Target,log2 fold change
1,WDR53 (UniProt Q7Z5U6),inactive: -0.001
2,VWDE (UniProt Q8N2E2),inactive: 0.015
3,WWOX (UniProt Q9NZC7),inactive: 0.119
4,"WDR46, A0A0G2JJL1",inactive: 0.012
5,WSB1 (UniProt Q9Y6I7),inactive: -0.036
6,WDR43 (UniProt Q15061),inactive: -0.035
7,WASHC5 (UniProt Q12768),inactive: 0
8,WBP2 (UniProt Q969T9),inactive: 0.046
9,WDR19 (UniProt Q8NEZ3),inactive: -0.467
10,"VKORC1L1, A0A3B3ISV4",inactive: -0.036
11,VPS4A (UniProt Q9UN37),inactive: 0.074
12,WDR59 (UniProt Q6PJI9),inactive: 0.016
13,XP32 (UniProt Q5T750),inactive: 0.304
14,"WDR13, A0A087X091",inactive: 0.02
15,WIPI2 isoform 6 (UniProt Q9Y4P8),inactive: -0.073
16,VWA3B isoform 6 (UniProt Q502W6),inactive: -0.109
